Experimental data as given in patent US20060122104A1, “Methods for in vitro expansion and transdifferentiation of human pancreatic acinar cells into insulin-producing cells” (priority 2002, published 2006).

System: primary human pancreatic acinar cells, IP cells, putative insulin producing cells
Test: 12K microarray mRNA expression at Day 3, Day 8 and Day 16 (Tables 6 and 7)
Assay type: cell-based
Conditions: for day3 (microarray mRNA expression signal): primary human pancreatic acinar cells; for day8 (microarray mRNA expression signal): IP cells; for day16 (microarray mRNA expression signal): putative insulin producing cells
[1] = mean of day3, day8 and day16 signals
[2] = ratio day8 to day3 (values fit log2)
[3] = ratio day16 to day3 (values fit log2)
[4] = 12K microarray mRNA expression signal of the gene, Day 3
[5] = 12K microarray mRNA expression signal of the gene, Day 8
[6] = 12K microarray mRNA expression signal of the gene, Day 16
[7] = expression class of the gene (one of 17 classes, clustering)
[8] = mRNA expression signal, 12K microarray, Day 3
[9] = mRNA expression signal, 12K microarray, Day 8
[10] = mRNA expression signal, 12K microarray, Day 16
[11] = mean of day3, day8, day16 signals
[12] = ratio day8 (intermediate) to day3 (acinar)
[13] = ratio day16 (islet-like) to day3 (acinar)

5-hydroxytryptamine (serotonin)
day3 (mRNA expression signal, 12K microarray, Day 3 (primary human pancreatic acinar cells)): 218.7666 | day8 (mRNA expression signal, 12K microarray, Day 8 (IP cells)): 181 | day16 (mRNA expression signal, 12K microarray, Day 16 (putative insulin producing cells)): 107.8181 | allMean [1]: 169.3507 | classsName (name of the class of genes by clustering): Unchanged Low | rationIntto/ [2]: −2.70E−01 | ratioItoA [3]: −1.02E+00

Interleukin 10
day3 (microarray mRNA expression signal) (Day 3): 174.8595 | day8 (microarray mRNA expression signal) (Day 8): 108 | day16 (microarray mRNA expression signal) (Day 16): 113.5877 | rationIntto/ (day8 versus day3): −7.00E−01 | ratioItoA (day16 versus day3): −6.22E−01 | allMean (mean of day3, day8, day16): 132.021

annexin A1
day3 [4]: 1114.486 | day8 [5]: 8240 | day16 [6]: 8292.245 | classsName [7]: On Acinar; Up Int = I | allMean [1]: 5883.787 | rationIntto/ [2]: 2.89E+00 | ratioItoA [3]: 2.90E+00

glutamine-fructose-6-phosphate
day3 (12K microarray mRNA expression signal of the gene at Day 3): 869.494 | day8 (12K microarray mRNA expression signal of the gene at Day 8): 600 | day16 (12K microarray mRNA expression signal of the gene at Day 16): 863.157 | classsName (expression class of the gene (classID 2 of 17 classes)): Unchanged Medium | allMean [1]: 777.6585 | rationIntto/ (ratio day8 versus day3 (values fit log2)): −5.34E−01 | ratioItoA (ratio day16 versus day3 (values fit log2)): −1.06E−02

interleukin 8
day3 [8]: 6902.736 | day8 [9]: 13300 | day16 [10]: 1783.339 | allMean [11]: 7330.866 | rationIntto/ [12]: 9.47E−01 | ratioItoA [13]: −1.95E+00

interleukin 11
rationIntto/ (day8 versus day3, values fit log2 of the ratio): −1.51E+00 | ratioItoA (day16 versus day3, values fit log2 of the ratio): 1.99E−01 | classsName (expression-pattern class (one of 17 classes; classID 1)): Unchanged Low | day3 (mRNA expression signal per gene, 12K microarray, Day 3 of culture): 399.048 | day8 (mRNA expression signal per gene, 12K microarray, Day 8 of culture): 140 | day16 (mRNA expression signal per gene, 12K microarray, Day 16 of culture): 458.1544 | allMean [1]: 332.3748

junction plakoglobin
day3 [8]: 1969.949 | day8 [9]: 2610 | day16 [10]: 912.3081 | allMean [11]: 1831.613 | rationIntto/ [12]: 4.07E−01 | ratioItoA [13]: −1.11E+00

phosphatidylinositol-4-phosphate
rationIntto/ (day8 versus day3): −5.16E−01 | ratioItoA (day16 versus day3): −1.04E−00

thrombospondin 1
day3 [8]: 79 | day8 [9]: 139 | day16 [10]: 163.2593 | allMean [11]: 127.0819 | rationIntto/ [12]: 8.15E−01 | ratioItoA [13]: 1.05E+00

transforming growth factor; alpha
day3 [4]: 215.9023 | day8 [5]: 160 | day16 [6]: 59.63 | classsName [7]: On A/Int; Off I | allMean [1]: 145.3108 | rationIntto/ [2]: −4.29E−01 | ratioItoA [3]: −1.86E+00

transforming growth factor; beta
day3 (microarray mRNA expression signal) (Day 3): 115.7567 | day8 (microarray mRNA expression signal) (Day 8): 108 | day16 (microarray mRNA expression signal) (Day 16): 120.6724 | rationIntto/ (day8 versus day3): −9.83E−02 | ratioItoA (day16 versus day3): 6.00E−02 | allMean (mean of day3, day8, day16): 114.8546
